Test results published in patent US7371728B2 (Kaohsiung Medical University, priority 2005, dated 2008).
Square brackets hold non-standard residues; d marks the D form. Ends that are not written are not given here. * marks the point of attachment. FITC = O=C1OC2(c3ccc(O)cc3Oc3cc(O)ccc32)c2ccc(NC(=S)*)cc21; Hyp = O=C(O)[C@@H]1C[C@@H](O)CN1; Chg = N[C@H](C(=O)O)C1CCCCC1

Experiment: general procedure: Fmoc solid-phase peptide synthesis; Rink Amide resin; PyBOP / NMM
Settings: whole synthesis, scale 0.1 mmole

G[Hyp]AS[Chg]QSLMK(FITC)C-NH2
crude mass: 129.4 mg
crude yield: 83%
